According to US5240933A, “14-hydroxy-N-(2-methoxyethyl)-7,8-dihydromorphine and -norisomorphine, processes for the preparation thereof and the use thereof as pharmaceutical compositions” (Boehringer Ingelheim GmbH, priority 1991, dated 1993):

System: opiate receptor
Experiment: opiate receptor binding test with [^3 H]-naloxon as radioligand
Conditions: Ki with 0.1M sodium chloride vs Ki without
Procedure: In this test, compound 1a according to the invention has a mean effective dose (MED) of 2.5 mg/kg p.o. (64% effect) and compound 1b according to the invention has an MED of 10 mg/kg p.o. (71% effect). […] This small sodium shift indicates the […] nature of the compounds according to the invention.

Row | SMILES | sodium shift
1 | COCCN1CC[C@]23c4c5ccc(O)c4O[C@H]2[C@H](O)CC[C@@]3(O)[C@H]1C5 [compound 1b, 14-hydroxy-N-(2-methoxyethyl)-7,8-dihydronorisomorphine] | 1.11
2 | COCCN1CC[C@]23c4c5ccc(O)c4O[C@H]2[C@@H](O)CC[C@@]3(O)[C@H]1C5 [compound 1a, 14-hydroxy-N-(2-methoxyethyl)-7,8-dihydronormorphine] | 1.12
